The assay has as its target Staphylococcal nuclease and Tudor domain containing 1 (SND1) (human (endogenous in PCa cell lines; DU-145 and PC-3 are the lines used)) (UniProt Q7KZF4). The experiment in a line: affinity purification with mass spectrometry; Co-IP-LC/MS: beads with 2 µg SND1 antibody, cell lysate supernatant, overnight at 4 ℃, three washes, eluted proteins detected by LC/MS.

Sequences of proteins named here, by UniProt entry; tags and fusion partners are left off.
UniProt Q7KZF4: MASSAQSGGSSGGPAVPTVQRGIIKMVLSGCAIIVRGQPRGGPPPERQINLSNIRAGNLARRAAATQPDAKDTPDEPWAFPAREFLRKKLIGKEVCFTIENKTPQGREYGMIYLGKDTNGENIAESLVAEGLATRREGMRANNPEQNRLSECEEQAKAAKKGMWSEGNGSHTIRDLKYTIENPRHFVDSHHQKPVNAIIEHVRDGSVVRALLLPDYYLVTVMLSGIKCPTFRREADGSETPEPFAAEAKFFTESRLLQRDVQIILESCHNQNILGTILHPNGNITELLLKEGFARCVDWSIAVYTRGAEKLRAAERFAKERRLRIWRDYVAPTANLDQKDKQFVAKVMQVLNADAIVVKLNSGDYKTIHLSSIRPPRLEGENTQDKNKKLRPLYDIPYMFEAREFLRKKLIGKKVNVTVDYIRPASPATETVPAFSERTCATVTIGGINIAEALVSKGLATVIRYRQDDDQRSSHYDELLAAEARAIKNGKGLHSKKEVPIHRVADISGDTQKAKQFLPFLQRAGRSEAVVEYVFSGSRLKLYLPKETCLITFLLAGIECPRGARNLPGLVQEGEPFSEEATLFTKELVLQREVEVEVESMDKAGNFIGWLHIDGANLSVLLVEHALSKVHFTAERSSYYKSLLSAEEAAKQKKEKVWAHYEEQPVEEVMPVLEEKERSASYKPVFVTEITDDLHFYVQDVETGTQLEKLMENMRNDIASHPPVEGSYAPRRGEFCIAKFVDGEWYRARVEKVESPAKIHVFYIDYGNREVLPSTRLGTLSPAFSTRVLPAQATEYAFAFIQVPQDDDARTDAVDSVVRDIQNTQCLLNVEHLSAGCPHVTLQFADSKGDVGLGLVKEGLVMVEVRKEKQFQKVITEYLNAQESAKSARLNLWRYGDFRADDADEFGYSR

These are yes or no findings as the source states them, for the method shown. In cells and extracts the contact can be indirect. Here binding means that the protein was enriched with, or labelled near, the bait; the list need not be complete.

B1: metadherin (MTDH) (protein, UniProt Q86UE4 1-582)
chain: MAARSWQDELAQQAEEGSARLREMLSVGLGFLRTELGLDLGLEPKRYPGWVILVGTGALGLLLLFLLGYGWAAACAGARKKRRSPPRKREEAAAVPAAAPDDLALLKNLRSEEQKKKNRKKLSEKPKPNGRTVEVAEGEAVRTPQSVTAKQPPEIDKKNEKSKKNKKKSKSDAKAVQNSSRHDGKEVDEGAWETKISHREKRQQRKRDKVLTDSGSLDSTIPGIENTITVTTEQLTTASFPVGSKKNKGDSHLNVQVSNFKSGKGDSTLQVSSGLNENLTVNGGGWNEKSVKLSSQISAGEEKWNSVSPASAGKRKTEPSAWSQDTGDANTNGKDWGRSWSDRSIFSGIGSTAEPVSQSTTSDYQWDVSRNQPYIDDEWSGLNGLSSADPNSDWNAPAEEWGNWVDEERASLLKSQEPIPDDQKVSDDDKEKGEGALPTGKSKKKKKKKKKQGEDNSTAQDTEELEKEIREDLPVNTSKTRPKQEKAFSLKTISTSDPAEVLVKNSQPIKTLPPATSTEPSVILSKSDSDKSSSQVPPILQETDKSKSNTKQNSVPPSQTKSETSWESPKQIKKKKKARRET
B1: the binding result is given as “binds”.

The record behind these values is publication PMC12333249.
